Data set [1] concerns the target T1, GST-GmABAS1 (UniProt A0A3Q9B5G2).
T1 sequence (looked up): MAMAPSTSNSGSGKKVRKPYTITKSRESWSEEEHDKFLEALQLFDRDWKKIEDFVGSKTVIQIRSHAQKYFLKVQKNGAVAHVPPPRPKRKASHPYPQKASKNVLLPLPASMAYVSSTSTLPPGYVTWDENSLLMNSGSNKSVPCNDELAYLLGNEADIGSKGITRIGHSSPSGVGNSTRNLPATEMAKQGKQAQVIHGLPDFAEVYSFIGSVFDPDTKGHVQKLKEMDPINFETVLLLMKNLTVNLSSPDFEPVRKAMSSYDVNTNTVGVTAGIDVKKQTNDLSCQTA
As to the kind of experiment: competition with a labelled probe. The following applies: 150 mM KCl, 10 mM Tris pH 7.4, 0.1 mM EDTA, 0.1 mM DTT, EDTA-free protease inhibitor, room temperature 20 min, recombinant protein, residues 1-289, protein details: N-terminal GST (pGEX-4T-1).

For another data set, the system named is GST. In words: EMSA. The following applies: tag-only control; 150 mM KCl, 10 mM Tris pH 7.4, 0.1 mM EDTA, 0.1 mM DTT, EDTA-free protease inhibitor; room temperature 20 min; recombinant protein; protein details: GST; label: none (SYBR Green stain).
Data set [2] addresses T1, GST-GmABAS1. In words: EMSA. The following applies: 150 mM KCl, 10 mM Tris pH 7.4, 0.1 mM EDTA, 0.1 mM DTT, EDTA-free protease inhibitor; room temperature 20 min; recombinant protein; residues 1-289; protein details: N-terminal GST (pGEX-4T-1); label: none (SYBR Green stain).

For some of these results: The comparison behind a weaker result is the experiment's own reference, which may not be listed here. For some of these results: Where a protein sequence is shown, tags need not be part of it. For some of these results: The exact form of at least one protein or probe is not confirmed. For some of these results: Negatives hold for the conditions tested. For some of these results: At least one verdict rests on a figure or table, not on a statement of the authors.

On to “TGAAAAATCGTGTAAAAAAAAAAACGTG (double strand) [Glyma.01G060300 mutated probe]”, for which the binding result with GST-GmABAS1 [1] (500 pmol unlabelled mutated competitor vs 10 pmol 6-FAM native probe) is “binds more weakly”.

Take “TGAAAAATCGTGTCAGTGTCGCCACGTG (double strand) [Glyma.01G060300 native probe]”: the binding result is on record as “no binding” with GST and “binds” with GST-GmABAS1 [1] (100-500 pmol unlabelled native competitor vs 10 pmol 6-FAM native probe, label: none (SYBR Green stain)). “TTTTTTTTTTTTTTTTTTTTTTTTTTTT (double strand) [oligo(T)-oligo(A) probe]”: in the data set with GST-GmABAS1 [2], the binding result was “binds more weakly”.

(Values after publication PMC7260724, “ABAS1 from soybean is a 1R-subtype MYB transcriptional repressor that enhances ABA sensitivity”.)
